This is one part of the list. Most entries show no effect beyond the scatter of the controls.
Compound: CN[C@@H]1C[C@H]2O[C@@](C)([C@@H]1OC)n1c3ccccc3c3c4c(c5c6ccccc6n2c5c31)C(=O)NC4 [staurosporine]
Test: log2 fold change of tryptic peptide abundance, ligand vs vehicle (limited proteolysis) (log2 ratio); higher = more trypsin-susceptible (destabilized)
Conditions: ligand concentration: 20 uM; sample: mouse liver crude lysate; replicate design: treated separately

Chains of the proteins cited; added tags and fusions are not shown. Lines headed by an entry give the natural chain unless they say otherwise; changes in a name come on top.
UniProt P97770: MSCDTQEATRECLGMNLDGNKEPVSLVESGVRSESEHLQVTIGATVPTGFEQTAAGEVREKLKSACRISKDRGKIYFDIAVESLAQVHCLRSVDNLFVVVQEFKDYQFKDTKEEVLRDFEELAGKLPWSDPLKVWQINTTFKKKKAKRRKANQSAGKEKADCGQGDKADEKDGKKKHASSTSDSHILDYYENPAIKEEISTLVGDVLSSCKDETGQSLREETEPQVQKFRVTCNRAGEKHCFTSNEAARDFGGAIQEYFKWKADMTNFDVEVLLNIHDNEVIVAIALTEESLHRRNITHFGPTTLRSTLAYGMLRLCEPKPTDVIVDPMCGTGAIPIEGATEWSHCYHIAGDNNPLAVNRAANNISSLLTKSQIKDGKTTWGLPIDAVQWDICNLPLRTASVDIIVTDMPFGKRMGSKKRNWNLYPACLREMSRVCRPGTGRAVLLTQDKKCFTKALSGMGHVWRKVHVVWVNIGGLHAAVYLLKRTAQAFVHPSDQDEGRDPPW
UniProt P67778: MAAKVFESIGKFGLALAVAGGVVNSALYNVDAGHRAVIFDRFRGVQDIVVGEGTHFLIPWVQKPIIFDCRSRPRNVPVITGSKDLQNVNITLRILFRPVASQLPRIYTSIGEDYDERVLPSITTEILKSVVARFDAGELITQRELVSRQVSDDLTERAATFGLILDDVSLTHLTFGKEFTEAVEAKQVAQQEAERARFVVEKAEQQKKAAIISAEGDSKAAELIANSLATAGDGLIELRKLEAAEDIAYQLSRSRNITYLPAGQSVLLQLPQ
UniProt P97355: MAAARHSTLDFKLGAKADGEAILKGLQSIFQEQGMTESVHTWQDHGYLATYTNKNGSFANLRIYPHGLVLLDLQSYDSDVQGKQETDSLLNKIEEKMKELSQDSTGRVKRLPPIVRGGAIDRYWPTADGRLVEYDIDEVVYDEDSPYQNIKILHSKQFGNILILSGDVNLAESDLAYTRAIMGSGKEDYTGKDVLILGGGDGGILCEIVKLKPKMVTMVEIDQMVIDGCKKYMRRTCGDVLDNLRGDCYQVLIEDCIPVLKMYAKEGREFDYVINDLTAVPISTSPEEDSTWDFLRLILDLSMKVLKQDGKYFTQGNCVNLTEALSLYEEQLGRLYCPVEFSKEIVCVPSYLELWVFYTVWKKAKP
UniProt P97798: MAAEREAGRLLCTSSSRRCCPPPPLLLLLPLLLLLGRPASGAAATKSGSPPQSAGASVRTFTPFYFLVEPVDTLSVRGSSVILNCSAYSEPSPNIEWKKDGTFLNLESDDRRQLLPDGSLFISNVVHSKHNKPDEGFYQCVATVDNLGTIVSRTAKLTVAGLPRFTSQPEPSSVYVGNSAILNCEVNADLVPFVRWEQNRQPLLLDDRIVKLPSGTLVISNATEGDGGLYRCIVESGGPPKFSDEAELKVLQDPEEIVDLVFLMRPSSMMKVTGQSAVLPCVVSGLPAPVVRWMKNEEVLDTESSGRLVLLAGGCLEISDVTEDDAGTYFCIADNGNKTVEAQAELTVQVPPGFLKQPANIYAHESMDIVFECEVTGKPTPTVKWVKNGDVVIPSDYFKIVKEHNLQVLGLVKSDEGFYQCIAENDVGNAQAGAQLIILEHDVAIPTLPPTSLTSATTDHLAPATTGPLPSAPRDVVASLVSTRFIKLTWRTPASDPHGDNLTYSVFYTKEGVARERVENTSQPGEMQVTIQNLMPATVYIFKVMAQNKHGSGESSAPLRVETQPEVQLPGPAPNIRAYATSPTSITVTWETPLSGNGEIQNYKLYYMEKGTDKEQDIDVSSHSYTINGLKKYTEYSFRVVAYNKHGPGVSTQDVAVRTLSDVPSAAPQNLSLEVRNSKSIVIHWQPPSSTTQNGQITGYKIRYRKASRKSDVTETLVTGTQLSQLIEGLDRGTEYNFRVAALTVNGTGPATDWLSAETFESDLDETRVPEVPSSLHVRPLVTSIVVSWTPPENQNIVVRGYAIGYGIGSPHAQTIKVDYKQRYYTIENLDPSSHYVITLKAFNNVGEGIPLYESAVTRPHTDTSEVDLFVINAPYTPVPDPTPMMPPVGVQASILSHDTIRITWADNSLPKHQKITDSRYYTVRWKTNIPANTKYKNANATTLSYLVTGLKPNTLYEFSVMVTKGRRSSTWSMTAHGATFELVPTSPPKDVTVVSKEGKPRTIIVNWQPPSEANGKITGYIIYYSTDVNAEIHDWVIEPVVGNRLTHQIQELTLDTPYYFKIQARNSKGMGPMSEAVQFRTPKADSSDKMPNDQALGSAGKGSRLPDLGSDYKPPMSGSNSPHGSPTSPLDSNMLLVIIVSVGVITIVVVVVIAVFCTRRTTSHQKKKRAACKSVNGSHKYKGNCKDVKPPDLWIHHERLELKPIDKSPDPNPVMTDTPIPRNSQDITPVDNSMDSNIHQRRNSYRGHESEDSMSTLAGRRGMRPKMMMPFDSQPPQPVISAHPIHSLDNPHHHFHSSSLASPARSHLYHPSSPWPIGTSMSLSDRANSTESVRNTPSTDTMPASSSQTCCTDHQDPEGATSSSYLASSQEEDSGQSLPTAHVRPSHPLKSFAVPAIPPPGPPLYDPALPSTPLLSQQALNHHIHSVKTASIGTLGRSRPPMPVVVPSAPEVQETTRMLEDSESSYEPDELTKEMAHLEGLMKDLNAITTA
UniProt P80315: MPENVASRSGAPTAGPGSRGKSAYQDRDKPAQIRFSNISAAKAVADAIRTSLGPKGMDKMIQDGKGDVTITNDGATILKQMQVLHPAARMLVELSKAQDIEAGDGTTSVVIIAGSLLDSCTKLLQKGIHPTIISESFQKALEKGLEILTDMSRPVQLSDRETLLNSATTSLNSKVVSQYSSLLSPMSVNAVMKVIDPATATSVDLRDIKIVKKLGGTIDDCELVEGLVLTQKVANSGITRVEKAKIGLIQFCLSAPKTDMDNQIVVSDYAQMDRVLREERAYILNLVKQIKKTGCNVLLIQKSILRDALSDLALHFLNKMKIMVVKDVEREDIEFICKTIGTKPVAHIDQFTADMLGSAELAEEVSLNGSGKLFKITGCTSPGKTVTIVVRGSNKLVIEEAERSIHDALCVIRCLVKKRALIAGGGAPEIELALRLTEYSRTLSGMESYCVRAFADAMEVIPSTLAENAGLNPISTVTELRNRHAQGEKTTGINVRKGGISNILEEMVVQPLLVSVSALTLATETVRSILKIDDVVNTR
UniProt P70248: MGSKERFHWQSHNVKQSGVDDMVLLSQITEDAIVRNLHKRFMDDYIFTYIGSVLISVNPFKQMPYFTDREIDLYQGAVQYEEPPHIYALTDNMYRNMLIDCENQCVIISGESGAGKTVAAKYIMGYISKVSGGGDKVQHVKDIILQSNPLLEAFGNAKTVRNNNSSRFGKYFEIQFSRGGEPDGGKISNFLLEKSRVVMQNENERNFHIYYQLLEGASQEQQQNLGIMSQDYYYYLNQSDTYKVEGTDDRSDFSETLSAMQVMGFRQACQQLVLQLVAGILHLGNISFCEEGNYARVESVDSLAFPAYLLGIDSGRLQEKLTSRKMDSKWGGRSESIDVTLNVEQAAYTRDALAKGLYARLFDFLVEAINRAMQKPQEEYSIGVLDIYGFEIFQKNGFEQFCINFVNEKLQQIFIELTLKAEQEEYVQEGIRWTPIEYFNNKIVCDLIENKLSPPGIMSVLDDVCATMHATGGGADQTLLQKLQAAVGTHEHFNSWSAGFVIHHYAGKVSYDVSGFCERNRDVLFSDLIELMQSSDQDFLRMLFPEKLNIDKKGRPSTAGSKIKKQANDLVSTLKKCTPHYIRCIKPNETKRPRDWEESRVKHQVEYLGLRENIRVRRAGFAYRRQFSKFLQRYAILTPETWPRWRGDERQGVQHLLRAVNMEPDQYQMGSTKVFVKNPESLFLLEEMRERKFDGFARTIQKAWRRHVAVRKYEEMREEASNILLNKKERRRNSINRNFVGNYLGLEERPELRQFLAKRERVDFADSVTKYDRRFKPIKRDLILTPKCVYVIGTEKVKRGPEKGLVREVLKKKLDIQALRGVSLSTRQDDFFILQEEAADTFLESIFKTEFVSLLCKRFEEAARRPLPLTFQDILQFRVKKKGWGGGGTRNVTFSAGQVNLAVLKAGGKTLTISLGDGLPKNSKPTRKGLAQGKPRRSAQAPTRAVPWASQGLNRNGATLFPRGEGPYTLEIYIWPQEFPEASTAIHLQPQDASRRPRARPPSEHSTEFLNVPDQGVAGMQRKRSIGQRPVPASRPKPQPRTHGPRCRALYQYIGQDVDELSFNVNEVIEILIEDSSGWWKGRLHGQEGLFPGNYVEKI
UniProt Q00519, whole entry: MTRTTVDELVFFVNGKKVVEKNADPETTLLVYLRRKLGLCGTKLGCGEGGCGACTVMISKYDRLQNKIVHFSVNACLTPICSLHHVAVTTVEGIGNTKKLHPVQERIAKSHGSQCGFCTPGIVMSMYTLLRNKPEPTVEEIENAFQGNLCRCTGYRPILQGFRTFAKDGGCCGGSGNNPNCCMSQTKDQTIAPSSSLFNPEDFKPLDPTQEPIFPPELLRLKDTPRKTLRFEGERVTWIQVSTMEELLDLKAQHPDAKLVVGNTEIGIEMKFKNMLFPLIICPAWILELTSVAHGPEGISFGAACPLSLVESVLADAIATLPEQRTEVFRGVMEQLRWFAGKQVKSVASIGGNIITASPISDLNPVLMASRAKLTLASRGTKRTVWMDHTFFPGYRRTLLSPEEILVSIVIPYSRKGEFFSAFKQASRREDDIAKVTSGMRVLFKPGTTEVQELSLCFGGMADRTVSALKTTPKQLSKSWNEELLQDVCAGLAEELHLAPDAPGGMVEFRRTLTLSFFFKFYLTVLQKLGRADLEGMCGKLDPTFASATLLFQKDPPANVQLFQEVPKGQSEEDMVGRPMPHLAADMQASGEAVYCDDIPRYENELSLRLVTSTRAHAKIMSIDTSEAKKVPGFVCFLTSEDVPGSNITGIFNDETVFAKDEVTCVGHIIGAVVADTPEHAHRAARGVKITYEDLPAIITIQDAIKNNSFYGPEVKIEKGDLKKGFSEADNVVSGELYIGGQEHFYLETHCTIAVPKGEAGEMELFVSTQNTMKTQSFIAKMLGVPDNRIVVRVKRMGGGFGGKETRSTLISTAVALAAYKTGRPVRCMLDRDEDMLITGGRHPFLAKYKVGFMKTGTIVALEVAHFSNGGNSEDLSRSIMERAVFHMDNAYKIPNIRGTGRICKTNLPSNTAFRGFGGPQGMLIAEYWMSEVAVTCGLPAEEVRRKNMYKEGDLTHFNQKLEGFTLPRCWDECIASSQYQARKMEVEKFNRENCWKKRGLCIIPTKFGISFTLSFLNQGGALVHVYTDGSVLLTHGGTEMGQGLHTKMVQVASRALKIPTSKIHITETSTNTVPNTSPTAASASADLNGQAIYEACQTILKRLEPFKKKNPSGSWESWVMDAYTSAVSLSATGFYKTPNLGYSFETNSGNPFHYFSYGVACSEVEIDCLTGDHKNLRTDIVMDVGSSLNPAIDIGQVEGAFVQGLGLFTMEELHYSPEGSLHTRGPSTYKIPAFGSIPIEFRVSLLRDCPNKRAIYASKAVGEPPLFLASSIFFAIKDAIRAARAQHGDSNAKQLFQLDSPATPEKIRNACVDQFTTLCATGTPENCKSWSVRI
UniProt P97931, whole entry: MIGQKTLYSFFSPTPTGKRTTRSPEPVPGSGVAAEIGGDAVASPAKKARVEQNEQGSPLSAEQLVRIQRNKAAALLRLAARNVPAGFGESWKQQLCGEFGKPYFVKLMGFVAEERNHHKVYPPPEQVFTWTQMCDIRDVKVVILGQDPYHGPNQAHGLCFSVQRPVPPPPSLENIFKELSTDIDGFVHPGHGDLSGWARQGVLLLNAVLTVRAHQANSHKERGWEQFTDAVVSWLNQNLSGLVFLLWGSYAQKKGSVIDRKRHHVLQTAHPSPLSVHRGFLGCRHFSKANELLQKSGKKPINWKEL
UniProt P97384, whole entry: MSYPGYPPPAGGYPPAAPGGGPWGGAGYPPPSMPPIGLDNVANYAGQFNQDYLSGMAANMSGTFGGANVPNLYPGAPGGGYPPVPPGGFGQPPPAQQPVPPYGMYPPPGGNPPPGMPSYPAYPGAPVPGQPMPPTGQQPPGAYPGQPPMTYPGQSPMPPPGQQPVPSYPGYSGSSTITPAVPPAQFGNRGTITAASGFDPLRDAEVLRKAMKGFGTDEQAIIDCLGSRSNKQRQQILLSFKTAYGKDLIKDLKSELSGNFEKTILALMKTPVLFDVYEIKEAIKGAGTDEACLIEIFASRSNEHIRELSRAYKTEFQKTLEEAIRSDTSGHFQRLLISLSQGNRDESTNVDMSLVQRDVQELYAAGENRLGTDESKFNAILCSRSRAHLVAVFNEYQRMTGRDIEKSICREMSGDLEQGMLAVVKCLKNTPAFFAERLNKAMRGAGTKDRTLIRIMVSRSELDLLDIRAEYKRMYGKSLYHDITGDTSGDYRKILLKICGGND

| Target | log2 fold change |
| --- | --- |
| UniProt P97770 (peptide sequence: STLAYGMLR, peptide start residue: 307) | -0.228 |
| UniProt P67778 (peptide sequence: AAIISAEGDSK, peptide start residue: 209) | -0.264 |
| UniProt P97355 (peptide sequence: NGSFANLR, peptide start residue: 55) | 0.0303 |
| UniProt P97798 (peptide sequence: GHESEDSMSTLAGRR, peptide start residue: 1248) | 0.268 |
| UniProt P80315 (peptide sequence: GIHPTIISESFQK, peptide start residue: 127) | -0.184 |
| UniProt P70340 (peptide sequence: GDVQAVAYEEPK, peptide start residue: 258) | 0.735 |
| UniProt P70248 (peptide sequence: EEASNILLNKK, peptide start residue: 718) | 0.358 |
| UniProt Q00519 (peptide sequence: LEGFTLPR, peptide start residue: 962) | -0.142 |
| UniProt P98063 (peptide sequence: AFQVQQAAVLR, peptide start residue: 72) | -0.046 |
| UniProt P97931 (peptide sequence: KGSVIDRK, peptide start residue: 254) | -0.14 |
| UniProt P97384 (peptide sequence: SELDLLDIR, peptide start residue: 460) | -0.568 |
| UniProt P97431 (peptide sequence: EFNLMYDGTK, peptide start residue: 92) | -0.303 |

Part of the list above, as labelled records.
UniProt P70340 (peptide sequence: GDVQAVAYEEPK, peptide start residue: 258)
  log2 fold change: 0.735
UniProt P70248 (peptide sequence: EEASNILLNKK, peptide start residue: 718)
  log2 fold change: 0.358

From the supplement of paper PMC12819154, “High-throughput peptide-centric local stability assay extends protein–ligand identification to membrane proteins, tissues and bacteria” (Nature Structural & Molecular Biology, 2025)
